For some of these results: A negative result means that nothing was seen under these conditions. Tags and fusion partners may be left off the protein sequences shown.
Experiments:
Assay in all cases: EMSA
[1] = system: T1, TraR (Lactococcus plasmid pNP40); conditions: 250 nM protein; 20 mM Tris-HCl (pH not stated), 10 mM MgCl2, 0.5 mM DTT, 1 mM EDTA, 100 mM KCl, 10% glycerol, poly[d(I-C)], 0.1 pmol DNA in 25 uL, 30 min at 30 C; 6% PAA gel; recombinant protein; residues 1-73; protein details: N-terminal His6; label: IRD700; probe letters rebuilt from the primers and the genome
T1 sequence (looked up): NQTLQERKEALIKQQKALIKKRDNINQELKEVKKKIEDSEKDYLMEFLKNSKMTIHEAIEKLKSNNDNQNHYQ

[2] = system: T2, TrsA (Lactococcus plasmid pUC11B); conditions: 250 nM protein; 20 mM Tris-HCl (pH not stated), 10 mM MgCl2, 0.5 mM DTT, 1 mM EDTA, 100 mM KCl, 10% glycerol, poly[d(I-C)], 0.1 pmol DNA in 25 uL, 30 min at 30 C; 6% PAA gel; recombinant protein; residues 1-673; protein details: C-terminal His6; label: IRD700; probe letters rebuilt from the primers and the genome
T2 sequence (looked up): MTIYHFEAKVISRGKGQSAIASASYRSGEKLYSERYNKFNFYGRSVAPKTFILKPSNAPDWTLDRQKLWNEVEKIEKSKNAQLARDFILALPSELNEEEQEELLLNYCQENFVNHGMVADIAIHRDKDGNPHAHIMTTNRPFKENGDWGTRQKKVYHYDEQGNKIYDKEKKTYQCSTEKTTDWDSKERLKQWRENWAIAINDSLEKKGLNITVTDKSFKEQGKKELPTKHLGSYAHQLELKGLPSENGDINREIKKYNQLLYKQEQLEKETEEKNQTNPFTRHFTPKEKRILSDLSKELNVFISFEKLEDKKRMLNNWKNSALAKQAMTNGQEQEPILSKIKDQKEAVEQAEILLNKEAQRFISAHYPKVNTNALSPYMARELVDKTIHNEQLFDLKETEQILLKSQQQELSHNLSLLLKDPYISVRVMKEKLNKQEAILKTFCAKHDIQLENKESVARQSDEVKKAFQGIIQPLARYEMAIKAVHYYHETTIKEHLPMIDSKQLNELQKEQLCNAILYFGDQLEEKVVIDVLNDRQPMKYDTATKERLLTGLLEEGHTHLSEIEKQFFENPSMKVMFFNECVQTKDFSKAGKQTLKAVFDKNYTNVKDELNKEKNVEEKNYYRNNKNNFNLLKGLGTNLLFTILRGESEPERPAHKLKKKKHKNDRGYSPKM

[3] = system: T3, TraAb (Lactococcus plasmid pNP40); conditions: 250 nM protein; 20 mM Tris-HCl (pH not stated), 10 mM MgCl2, 0.5 mM DTT, 1 mM EDTA, 100 mM KCl, 10% glycerol, poly[d(I-C)], 0.1 pmol DNA in 25 uL, 30 min at 30 C; 6% PAA gel; recombinant protein; residues 1-505; protein details: C-terminal His6; label: IRD700; probe letters rebuilt from the primers and the genome
T3 sequence (looked up): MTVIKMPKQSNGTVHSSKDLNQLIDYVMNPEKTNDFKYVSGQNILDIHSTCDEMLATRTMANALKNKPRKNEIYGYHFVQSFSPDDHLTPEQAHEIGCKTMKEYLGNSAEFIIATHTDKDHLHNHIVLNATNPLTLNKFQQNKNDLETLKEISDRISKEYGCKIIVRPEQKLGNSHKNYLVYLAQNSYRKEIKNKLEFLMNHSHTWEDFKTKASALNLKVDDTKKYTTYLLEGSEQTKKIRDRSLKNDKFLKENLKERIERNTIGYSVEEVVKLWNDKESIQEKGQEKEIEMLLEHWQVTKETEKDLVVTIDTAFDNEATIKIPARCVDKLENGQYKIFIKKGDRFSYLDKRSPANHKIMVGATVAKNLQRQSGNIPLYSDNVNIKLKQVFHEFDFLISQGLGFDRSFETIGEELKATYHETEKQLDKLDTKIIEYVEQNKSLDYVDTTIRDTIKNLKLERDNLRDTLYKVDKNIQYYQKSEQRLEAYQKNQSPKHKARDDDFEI

Row | Sequence | binding result [2] | also measured
1 | CCTACTTTAACAGTTGAACTAGAAAGTACATCAGTTACATATTTCCAAGCATTAGTGTTAAAATCGGCTTCTTGTCCTCCTAAAACTTTAAATAAGTCCATAAAATGAACCTCCTAATTTCTTTTGCTAATTATTAAAACAAAACATAACTAAGGCAACAACAACTAACAAAATGATGATACTTACTAAAATCGGTGCTAATAGTGATTTAAACACAAATAACATCAGTATCAAATTCAAAATACCAGTAATTAAAGCTACCGAAATGTTTCCTTGTTTGAATAAAACAACAACAACACCAATAAGCAAAGCTAATAATACTAGTCCGCCTAACAGATACCCCATAATAGACGAATTTTGTTCCGAAAAAACGATTTTAAAGGCTCTTACAACCGCTCCGTCCGATGATGAATAGTATTCTTTCAGCTTTTCATTTAACTTATCCAAGTGTCCTAAATAATAAAACCATGCAATAACTAGAACAATTTCTCCAATCAGGACACCCTTTGCTTCTGATATGTCTTCT (double strand) [PL (UtraL) fragment] | – | binding result [1]: binds
2 | CGGTTGTCTTTTTGGATAATGTTTTTGTTATCGGCTTCAAGAAATATGTTGTTATCTTCAAGCACTTTTTTTACGTCTATAGTATACAAGAATTTTTTAATTGACATGCGTTATCCCTCATTTTTAAACAAAAAAAGGTATCTTCAACTGAAAAAATAATCAGAAGAAGATACCTTAGTTTGAAGATCCATCACGTCGCTTAGTTTTTTAATGTGGCTTAGACGTTTCAACCACTCAACACGTCGCTTAGTTTTTTAATGTGGCTTAGACGTTTCAACCACTCATCTTTTTTTATCTTCTTCTATTATAAAATATTTAGTTGTAAAAAACAAGGTGAACGTTTAGTTCGGGTTTATTCGCTTTGTTCAAAGTCTTCATCAAAAAGAATTTCAGGATTATTAATTTCAGTGATTGGCTGTGTATCATAAAGGGCTTTATATTCGGGTAGTTTTTCACCTGCAATTGTTTGTATCCCTGTTTGCATGTATCCGATAAGAAAATAGTCAACGTTTGGC (double strand) [PAR (UtrsAR) fragment] | no binding | –
3 | GAACAGTTAGAACGCTATAAAGAAAGAATCACAGAGTATCACGCTTATCGTCTTAAACAGCAAGAGGAAACAAAGCAGGCGGAAGATACAGCTTTTCAAACACAGGAACAAGCAGACAAAAAAGAAGCTTCTAAAGCCAACGAAACCATTACTGACGAACAAAAAGCTTATCTAAAAAAACGCGAAGCTTTACTTGCAGATATGCAGGAGCAAGAACAAGAGCAAGCCCCTGAATTACCTAAAGAAAGTCCATTAGAAGTGGCAGAAGAAGACACGACAAAAGAACCTGAAATAGCTGAACAGTCAGATTTAATGTTTGAAAATGAAACAGAAAACCGTTCATATTCTGACTATTACGCTACCGAAGATTCCCCTACTGCAATTAATTTTGAAAGTGAAGATGAATAGAATGGAGTGTAAACAATGAAAAAAATAATAAGCGGAGTGCTTCTAATTGTCCTTGTATGTTTTGGATTGAGTGCTTGCGGTAAAAAAGAATTTAGTTTCAATGGAGAGTGGAATTTAAAAG (double strand) [P22 (Utrs22) fragment] | no binding | –
4 | GTGTCTTTCACGCTGAATGGGTTTATATTCAAGTATTTAGTGTGTGGGTAGCTATTTCATATTTAACAGTCGATAATAACATGATTAACGACTATTTAAAACGTGTCGGTTATGAATTTACAAATTTAATCATTGCTGTTTCCGCTATGGCGGGTATTATCGAACTTCTAGCCAAAAAGAATATCGGTGCAGGTGATGTGATGTTGATAATTGGTTTAGGTTTTGTCGAAATTAAAGGAGCAGGCATTGCCAACGTTATTTTTGGTGGACGACCAAGTGGCGGTTTGATGAGAGGTATCTCTTCTACTGTTTCCAACGCTACTCGAATGTTTAAAAAATAAAAAAGTCTTGCATGTAAAAAGGCAGATACACGCAAGACAACAGAAAGGACATACCGAAGTATGCACATTGTTATTTTAGCAGAAAAACCCAATCAAGCCAAAGATATTTCACAGATATTCAAGAATGTGAAACGAAATAATGGCTATTATGAAATTACAGACAATGATTTTTTCCCAAACG (double strand) [P24 (Utrs24) fragment] | no binding | –
5 | GATACCTGTTTCTTTCATCATCAATTTAATTCTTTCGTTCTCTTTTTCATTTACGAAGAACCTTTTTAAAATATTTCTTTCACGATTTTTGATTTTTTTCATCTTGTCAACCTCTCAAATTTCTGTCAACTCTAAAAGCTCAAAATAGGGGGTTAGTGTCTTTAGCGAGCTTAGTAAGTGTAGCCACACTTACAGTAAAAAGTATTCATCTTTCACTCACAAAAGCTAAAATTTTCAATTTTATTTTTGTTCGTTTCAGACGAATCTTTTTATTTTTGGTGGTGTCCCCCAATCCCCCTTTTTTTTAAAATTAATTCTCATAATTTATATTTTTTGGAAAATTAATTTCAAATTCTTTTAAGACATCTTCGTATAAATCTTTGACTTCAAAACACAAATTTTTAACTTCCTCTTCGGTCAAAGTTTGAACATATTTTTTTGCGTCAATGTAATGATTTAATTCTTCTTTATCAATTAAATCTAATTGTTCCTGTATCATTTCTTCT (double strand) [PAa (UtraAa) fragment] | – | binding result [3]: binds
6 | GCGTTCACTGTATAATTTTTCCCCACTACGATAAGAGGCGCTAGCAATTGCAGACTGTCCTTTCCCTCTTGAAATAACTTTAGCTTCAAAATGATAAATAGTCATAAGAAGTGTTCTCCTTTCTTTTTTATTTTTTACACGAGCAAAGCGAGTTTTTTCAACACGTTCAATCTGAAAGATTGGCAATTTATACCATGATTTTTCATGGTATATAAGTGCGCCCTTATATCTTATAGGGATATTTTACCACTTTTTATTAGTATTTTGTACTTATCTGTCTTTTGCCTTATTTTGTTGCATTTGATAGAATATAATTATCAATAAGTGTTTCAAATAAGAAAGGACTAGGAAGTTATGGCAAAGAAAAAAAGCTTGGAAGATTTACAAAAAGAATTAGCAAAGAAACAAGAAGACATTAAAATTATCAATAGAAAAATTGGACAACAAAAACGATACATTAATACTCGTATTGGAGAAG (double strand) [PA (UtrsA) fragment] | binds | –
7 | AAAATCCAAGCATGAAAGTTATGTTTTTCAATGAATGTGTCCAAACGAAAGATTTTAGTAAAGCAGGCAAGCAAACATTAAAAGCTGTGTTTGATAAAAACTATACGAATGTCAAAGATGAACTTAACAAAGAAAAAAATGTGGAAGAAAAAAACTACTACCGCAACAATAAAAATAATTTCAATCTGCTCAAAGGACTAGGAACAAATCTACTCTTTACGATTTTACGAGGGGAAAGCGAACCTGAACGTCCCGCTCATAAATTGAAGAAGAAAAAGCATAAAAACGATAGAGGATACAGTCCAAAAATGTAACATTCATAATTGTGGACACCTGTCCTCATTTGTTGTATTATATAAATAACTAATCAAGAAAGGAGGGCAAGAAATGTCGAAAGATAAGTGGTTTAGCTTGAATGAAGCTAGTAGAAGTATCGGAAAAAGCAAGGGATATTTTTCAACAACTAGGACAAGACATCCAGAATACTTTC (double strand) [PR (UtrsR) fragment] | binds | –

— publication PMC10873654
